By Hill slope is commonly meant the slope factor of the fitted curve.

This series has as its system primary rat cortical cultures. Nature of the series: Neutral red (NR) uptake cytotoxicity assay. The note with it: fitted NR curve, primary rat cortical neurons, 24 h. The series is classed as cell-based. The method, then:
Female Wistar rats were obtained from Charles River Laboratories. The animals were allowed free access to rat chow and water, being maintained on a 12 h/12 h light/dark cycle, under controlled temperature (20 ± 2 °C) and humidity (40–60%). Primary cortical cultures were prepared as previously described. Briefly, for embryo collection, the pregnant female Wistar rats were anesthetized with isoflurane and subsequently administered ketamine and xylazine (200 + 100 μL, intraperitoneal). At the end of the dissection procedures, the female rat was euthanized with the administration of sodium pentobarbital ([…]). The embryos were used between embryonic day 16 (E16) and E19, considering the mating day as E0. The embryos were dissected from the uterus, and the heads were decapitated and placed in ice-cold 0.1 M PBS supplemented with 0.6% (w/v) glucose. The cortex dissection was performed under a Zeiss stereo microscope (Stemi DV4). Following trypsinization (0.05% trypsin/EDTA) and DNAse I treatment, the tissue pieces were mechanically dissociated, and the cells seeded in freshly prepared neurobasal medium (supplemented with 2% B-27, 100 U/mL of penicillin, 100 μg/mL of streptomycin, and 1% GlutaMAX^TM supplement) at a density of 150,000 cells/cm^2 in 96-well plates precoated, overnight, with 0.05 mg/mL PLL solution (prepared in 0.1 M borate buffer, pH 8.5). The cultures were maintained at 37 °C in a 5% CO2 air atmosphere. The medium was renewed at 4 days in vitro (DIV) by replacing half of the volume with fresh medium, and the cultures were used at 8 DIV.
The differentiated SH-SY5Y cells (25,000 cells/cm^2) and primary rat cortical cultures (150,000 cells/cm^2) were seeded onto 96-well plates as previously described.
Accordingly, 6 days after seeding (differentiated SH-SY5Y cells) or at 8 DIV (primary cultures), the cells were exposed, for 24 h (37 °C, 5% CO2), to different concentrations of the drugs (0–1000 µM). Thus, the tested concentrations ranged from 0 to 1000 µM for 2C-T-2 and 2C-T-4; 0 to 500 µM for 2C-T-7; 0 to 250 µM for 25T2-NBOMe, and 0 to 100 µM for 25T4-NBOMe and 25T7-NBOMe.
The NR uptake assay is based on the detection of viable cells through the incorporation of the NR dye by the cell’s lysosomes. In brief, after 24 h of exposure to the tested drugs, the differentiated SH-SY5Y cells and primary rat cortical cultures were incubated with NR (50 µg/mL in complete medium) for 90 or 210 min, respectively, at 37 °C, in a 5% CO2-95% air atmosphere. To extract the absorbed dye, an acidified ethanol solution was used, and the absorbance was then measured at 540 nm in a multi-well plate reader (PowerWaveX, BioTek Instruments, Winooski, VT, USA). The cytotoxicity was estimated by the percentage of NR uptake relative to the control cells, and a minimum of 4 independent experiments were conducted in triplicate.
`COc1cc(SC(C)C)c(OC)cc1CCNCc1ccccc1OC.Cl` [25T4-NBOMe, 2-(4-(isopropylthio)-2,5-dimethoxyphenyl)-N-(2-methoxybenzyl)ethan-1-aminium chloride] had a Hill slope of 2.526.

`CCCSc1cc(OC)c(CCNCc2ccccc2OC)cc1OC.Cl` [25T7-NBOMe, 2-(2,5-dimethoxy-4-(propylthio)phenyl)-N-(2-methoxybenzyl)ethan-1-aminium chloride] returned a Hill slope of 2.557.

Turning to `CCSc1cc(OC)c(CCN)cc1OC.Cl` [2C-T-2, 2-(4-(ethylthio)-2,5-dimethoxyphenyl)ethan-1-aminium chloride], the Hill slope was 3.138.

With `COc1cc(SC(C)C)c(OC)cc1CCN.Cl` [2C-T-4, 2-(4-(isopropylthio)-2,5-dimethoxyphenyl)ethan-1-aminium chloride], the Hill slope was 2.808.

`CCSc1cc(OC)c(CCNCc2ccccc2OC)cc1OC.Cl` [25T2-NBOMe, 2-(4-(ethylthio)-2,5-dimethoxyphenyl)-N-(2-methoxybenzyl)ethan-1-aminium chloride] gave a Hill slope of 3.102.

The compound `CCCSc1cc(OC)c(CCN)cc1OC.Cl` [2C-T-7, 2-(2,5-dimethoxy-4-(propylthio)phenyl)ethan-1-aminium chloride] gave a Hill slope of 2.560.

The record behind these values is article PMC11204507, “Mechanistic Insights into the Neurotoxicity of 2,5-Dimethoxyphenethylamines (2C) and Corresponding N-(2-methoxybenzyl)phenethylamine (NBOMe) Drugs” (Journal of Xenobiotics, 2024).
